Measured data: PubChem BioAssay AID1259275 (Sanger Institute, 2017)

Screen: 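Kinome and custom colorectal gene library screened for lethal knock-downs and drug partners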 (primary screen)
Cell system: COLO320HSR human colorectal cancer cells
Reagents: siRNA pool against human genes
Challenge: anchor drug added one day after transfection: BYL719 at 1 µM, cetuximab at 5 µg/ml or trametinib at 10 nM; DMSO as vehicle arm
Measured: 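Replicate-mean viability versus non-targeting pool control, robust z-score without drug, and per-drug synergy scores for BYL719 at 1 µM, cetuximab at 5 µg/ml and trametinib at 10 nM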
Scale: robust z-score, siRNA alone: higher = more viable cells; strongly negative means essential; viability, knock-down alone (DMSO): higher = more viable cells
Units: viability, knock-down alone (DMSO) in fraction of control
Active means: 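a gene is called essential when its robust z-score without drug falls below -3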
Calls: active = essential (siRNA alone); inactive = no change (siRNA alone)
Shown is a random part of 794 deposited reagents. 13 of all reagents (1.6%) count as active. 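Calls mark knock-downs lethal by themselves, not drug synergy; drugs went in a day after transfection, with DMSO as vehicle.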 Entries without a mark were called inactive. No viability above 1 is reported: the scale is capped. Further read-outs or replicates are left out here. Reagent sequences are not shown. The record does not give: the amount of reagent, the time to read-out.

STK26 scored robust z-score, siRNA alone -0.198; viability, knock-down alone (DMSO) = 0.917. TP53 showed robust z-score, siRNA alone 0.671; viability, knock-down alone (DMSO) = 0.995. With knock-down of TNNI3K, the record shows robust z-score, siRNA alone 0.726; viability, knock-down alone (DMSO) = 1. CDKN1A gave robust z-score, siRNA alone -0.266; viability, knock-down alone (DMSO) = 0.91.

2 entries from above, reformatted.
{"Target gene": "TNNI3K", "robust z-score, siRNA alone": 0.726, "viability, knock-down alone (DMSO)": 1}
{"Target gene": "CDKN1A", "robust z-score, siRNA alone": -0.266, "viability, knock-down alone (DMSO)": 0.91}

Further reagents follow.
SNRK scored robust z-score, siRNA alone -0.23; viability, knock-down alone (DMSO) = 0.914. For PKIA the deposit lists robust z-score, siRNA alone 0.108; viability, knock-down alone (DMSO) = 0.944. SMG1 showed robust z-score, siRNA alone 0.206; viability, knock-down alone (DMSO) = 0.953. For IKBKG, the values are robust z-score, siRNA alone 0.726; viability, knock-down alone (DMSO) = 1. CKMT2 scored robust z-score, siRNA alone 0.726; viability, knock-down alone (DMSO) = 1. With knock-down of TBCK, the record shows robust z-score, siRNA alone 0.726; viability, knock-down alone (DMSO) = 1.

TESK1 gave robust z-score, siRNA alone 0.726; viability, knock-down alone (DMSO) = 1. With knock-down of PNKP, the screen gave robust z-score, siRNA alone -0.975; viability, knock-down alone (DMSO) = 0.846.
